In the supplement of paper PMC10331698:
± gives the standard deviation of the averaged measurements. Small differences around the control level are noise.

Tests used:
Assay in all cases: level (log10 ratio to DMSO vehicle control); higher = higher biomarker level / cell amount than vehicle control
[1] = compound: O=S(=O)(O)C(F)(F)C(F)(F)OC(F)(F)C(F)(F)F [Perfluoro(2-ethoxyethane)sulfonic acid]; conditions: 2200 nM; in DMSO
Method: (§1)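 BioMAP Diversity Plus panel of 12 human primary cell co-culture systems (3C, 4H, LPS, SAg, BT, BF4T, BE3C, CASM3C, HDF3CGF, KF3CT, MyoF, Mphg). Compounds were added 1 h before stimulation and left for 24 h (MyoF 48 h; BT 72 h for soluble read-outs or 6 d for IgG). Biomarkers were read by ELISA, cytotoxicity by SRB, PBMC viability and proliferation by Alamar Blue. Each well value was divided by the mean of 8 DMSO control wells on the same plate and log10 transformed; duplicate blinded samples were tested at 4 concentrations.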

Nonafluoropentanamide = compound: NC(=O)C(F)(F)C(F)(F)C(F)(F)C(F)(F)F [Nonafluoropentanamide]; conditions: 2200 nM; in DMSO
Method: as §1

Tetrafluorosuccinic acid = compound: O=C(O)C(F)(F)C(F)(F)C(=O)O [Tetrafluorosuccinic acid]; conditions: 2200 nM; in DMSO
Method: as §1

[2] = compound: C=C(C)C(=O)OCCC(F)(F)C(F)(F)C(F)(F)C(F)(F)C(F)(F)C(F)(F)C(F)(F)C(F)(F)F [8:2 Fluorotelomer methacrylate]; conditions: in DMSO
Method: as §1

Octafluoroadipamide = compound: NC(=O)C(F)(F)C(F)(F)C(F)(F)C(F)(F)C(N)=O [Octafluoroadipamide]; conditions: 2200 nM; in DMSO
Method: as §1

[3] = compound: COC(=O)CCC(F)(F)C(F)(F)C(F)(F)C(F)(F)F [Methyl 2H,2H,3H,3H-perfluoroheptanoate]; conditions: 2200 nM; in DMSO
Method: as §1

[4] = compound: O=C(O)C(F)(F)C(F)(F)C(F)(F)C(F)(F)C(F)(F)C(F)(F)C(F)(F)C(F)(F)Cl [9-Chloro-perfluorononanoic acid]; conditions: in DMSO
Method: as §1

[5] = compound: NS(=O)(=O)C(F)(F)C(F)(F)C(F)(F)C(F)(F)C(F)(F)C(F)(F)F [Perfluorohexanesulfonamide]; conditions: 2200 nM; in DMSO
Method: as §1

[6] = compound: OCCC(F)(F)C(F)(F)C(F)(F)C(F)(F)F [4:2 Fluorotelomer alcohol]; conditions: 2200 nM; in DMSO
Method: as §1

[7] = compound: O=C(O)CCC(F)(F)C(F)(F)C(F)(F)C(F)(F)C(F)(F)F [2H,2H,3H,3H-Perfluorooctanoic acid]; conditions: 2200 nM; in DMSO
Method: as §1

Perfluoropinacol = compound: OC(C(F)(F)F)(C(F)(F)F)C(O)(C(F)(F)F)C(F)(F)F [Perfluoropinacol]; conditions: in DMSO
Method: as §1

[8] = compound: O=S(=O)(O)CCC(F)(F)C(F)(F)C(F)(F)C(F)(F)C(F)(F)C(F)(F)F [6:2 Fluorotelomer sulfonic acid]; conditions: in DMSO
Method: as §1

[9] = compound: FC(F)(F)C(F)(F)C(F)(F)C(F)(F)C(F)(F)CCI [1-Iodo-1H,1H,2H,2H-perfluoroheptane]; conditions: 2200 nM; in DMSO
Method: as §1

[10] = compound: C=C(C)C(=O)OCCC(F)(F)C(F)(F)C(F)(F)C(F)(F)C(F)(C(F)(F)F)C(F)(F)F [(Perfluoro-5-methylhexyl)ethyl 2-methylprop-2-enoate]; conditions: in DMSO
Method: as §1

Test System	level (log10) [1]	level (log10) (Nonafluoropentanamide)	level (log10) (Tetrafluorosuccinic acid)	level (log10) ([2]; 740 nM)	level (log10) ([2]; 2200 nM)	level (log10) (Octafluoroadipamide)	level (log10) [3]	level (log10) ([4]; 2200 nM)	level (log10) ([4]; 6700 nM)	level (log10) ([4]; 20000 nM)	level (log10) [5]	level (log10) [6]	level (log10) [7]	level (log10) (Perfluoropinacol; 2200 nM)	level (log10) (Perfluoropinacol; 6700 nM)	level (log10) (Perfluoropinacol; 20000 nM)	level (log10) ([8]; 2200 nM)	level (log10) ([8]; 6700 nM)	level (log10) ([8]; 20000 nM)	level (log10) ([8]; 60000 nM)	level (log10) [9]	level (log10) ([10]; 740 nM)	level (log10) ([10]; 2200 nM)	level (log10) ([10]; 6700 nM)	level (log10) ([10]; 20000 nM)
BE3C:MMP-1	0.001 ± 0.011	0.0115 ± 0.015	0.0115 ± 0.04	-0.0005 ± 0.03	0.0095 ± 0.011	0.027 ± 0.062	0.0355 ± 0.011	0 ± 0.048	0.083 ± 0.024	0.277 ± 0.0064	0.0115 ± 0.00071	-0.004 ± 0.079	0 ± 0.0085	0.058 ± 0.051	0.0275 ± 0.0021	-0.003 ± 0.0057	-0.01 ± 0.013	-0.013 ± 0.017	-0.0105 ± 0.018	0.078 ± 0.054	-0.0135 ± 0.019	0.0055 ± 0.023	0.001 ± 0.011	0.026 ± 0.0042	0.014 ± 0.0057
HDF3CGF:CXCL11/I-TAC	0.0075 ± 0.0021	-0.0065 ± 0.037	-0.0225 ± 0.025	-0.051 ± 0.044	-0.002 ± 0.028	-0.0005 ± 0.033	-0.0035 ± 0.011	-0.082 ± 0.024	-0.105 ± 0.029	-0.217 ± 0.069	-0.0005 ± 0.0092	-0.003 ± 0.034	-0.0475 ± 0.06	-0.05 ± 0.071	-0.062 ± 0.041	-0.234 ± 0.015	-0.0555 ± 0.064	-0.0445 ± 0.1	-0.0605 ± 0.088	-0.0885 ± 0.091	0.0085 ± 0.036	-0.005 ± 0.0085	-0.003 ± 0.0099	-0.013 ± 0.0014	-0.0155 ± 0.013
KF3CT:MMP-9	-0.0015 ± 0.00071	-0.022 ± 0.0014	-0.0085 ± 0.03	0.005 ± 0.0071	-0.0175 ± 0.0021	-0.006 ± 0.0099	-0.021 ± 0.04	-0.014 ± 0.014	-0.0345 ± 0.0021	-0.106 ± 0.0071	-0.0285 ± 0.026	-0.0645 ± 0.033	-0.0165 ± 0.005	0.011 ± 0.031	0.01 ± 0.018	-0.0245 ± 0.029	-0.0175 ± 0.021	-0.0285 ± 0.019	0.0085 ± 0.018	0.026 ± 0.0028	-0.0175 ± 0.03	-0.072 ± 0.047	-0.04 ± 0.033	-0.0045 ± 0.037	-0.027 ± 0.041
CASM3C:CXCL9/MIG	0.017 ± 0.048	0.0365 ± 0.0092	0.0035 ± 0.033	0.0125 ± 0.043	0.0035 ± 0.00071	0.0305 ± 0.018	0.003 ± 0.011	-0.01 ± 0.02	-0.0355 ± 0.0035	-0.0235 ± 0.013	-0.001 ± 0.013	0.0355 ± 0.028	0.01 ± 0.024	-0.007 ± 0.047	-0.013 ± 0.02	-0.0335 ± 0.011	-0.007 ± 0.051	-0.0445 ± 0.0078	-0.0315 ± 0.0035	-0.015 ± 0.045	0.0005 ± 0.015	0.0175 ± 0.04	0.014 ± 0.045	0.0335 ± 0.029	0.0445 ± 0.046
BF4T:PAI-I	0.0205 ± 0.022	0.0025 ± 0.018	-0.004 ± 0.011	0.0085 ± 0.013	-0.007 ± 0.0085	-0.0005 ± 0.013	0.0185 ± 0.026	-0.033 ± 0.023	-0.027 ± 0.0042	-0.052 ± 0.0028	0.003 ± 0.016	-0.003 ± 0.035	-0.004 ± 0.023	-0.0035 ± 0.011	-0.0315 ± 0.0035	-0.0845 ± 0.0064	0.0015 ± 0.025	0.0075 ± 0.005	-0.0235 ± 0.012	-0.0265 ± 0.0078	0.0055 ± 0.023	-0.0105 ± 0.023	-0.018 ± 0.0014	-0.01 ± 0.018	-0.023 ± 0.0057
